Primary screen of a compound library

Protein sequences, listed by entry. Tags and fused reporters are not part of them.
UniProt E9BF75, entry or part of it: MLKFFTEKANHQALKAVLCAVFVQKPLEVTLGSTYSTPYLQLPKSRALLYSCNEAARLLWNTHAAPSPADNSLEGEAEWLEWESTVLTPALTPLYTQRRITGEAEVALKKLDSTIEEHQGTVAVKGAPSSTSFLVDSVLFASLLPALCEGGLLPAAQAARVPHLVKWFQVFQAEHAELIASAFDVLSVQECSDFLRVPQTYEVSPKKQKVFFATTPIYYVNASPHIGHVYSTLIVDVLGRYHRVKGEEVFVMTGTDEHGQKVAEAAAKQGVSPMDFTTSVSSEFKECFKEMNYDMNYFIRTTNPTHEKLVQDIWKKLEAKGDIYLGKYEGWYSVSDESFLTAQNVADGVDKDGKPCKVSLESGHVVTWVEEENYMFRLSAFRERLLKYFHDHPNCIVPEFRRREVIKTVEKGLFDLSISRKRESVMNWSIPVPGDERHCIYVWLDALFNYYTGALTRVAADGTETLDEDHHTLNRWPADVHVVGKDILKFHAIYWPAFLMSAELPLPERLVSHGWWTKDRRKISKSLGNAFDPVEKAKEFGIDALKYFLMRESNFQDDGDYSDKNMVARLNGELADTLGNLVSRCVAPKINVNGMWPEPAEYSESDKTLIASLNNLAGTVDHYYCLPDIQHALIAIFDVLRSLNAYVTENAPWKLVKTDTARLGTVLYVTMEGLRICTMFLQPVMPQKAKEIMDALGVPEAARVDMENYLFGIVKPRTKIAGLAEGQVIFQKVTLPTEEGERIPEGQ

The values are deposited in ChEMBL (CHEMBL3988442, “University of Dundee, Small-Polar-MMV Screening Library” (2021)).

Results are percentages, as filed. How 0% and 100% were set is not recorded. Most values in the screen are low, and negative values occur. Compounds were drawn at random from those tested, without regard to their results. A dash means the value is not listed here; it may have been measured.

LdMetRS: 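Methionyl-tRNA synthetase (putative), Leishmania donovani (UniProt E9BF75). Primary screen of methionyl-tRNA synthetase; the read-out is not stated. The test concentration is not given. The values are filed as inhibition. About 68,000 compounds were tested under these conditions; 0.035% (about 24) showed 50% or more at least once.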
Mtb heat-shock: 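Assay on Mycobacterium tuberculosis, filed only as a heat shock assay from Cornell; the read-out is not stated. The concentration is filed as 10 mM, unlikely as a test dose, so the dose is not known. Direction is inferred from retests: higher values go with stronger inhibition. Of about 69,000 compounds tested this way, about 930 (1.4%) reached 50% or more in at least one test.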

| structure | LdMetRS | Mtb heat-shock |
|---|---|---|
| `O=C(COCc1ccccc1Cl)N1CCN(c2ncccn2)CC1` | -4.032 | -11.84 |
| `CCc1nnc(CN(C)C[C@@H]2CCCN3CCCC[C@H]23)o1` | 13.33 | - |
| `CSCC(CCO)NC(=O)c1cccc(C)c1Cl` (stereo unspecified) | 14.73 | -40.53 |
| `CN1CCN(C2CCN(Cc3noc(C(C)(C)C)n3)CC2)C1=O` | 2.29 | -31.45 |
| `COCCCn1c(CN2CCCC(O)C2)cnc1S(=O)(=O)C1CCCC1` (stereo unspecified) | 13.39 | -38.6 |
| `CN1CCN(CC(NCc2cccc(O)c2)c2ccccc2)CC1` (stereo unspecified) | 15.23 | 12.4 |
| `O=C(Nc1ccc2c(c1)OCO2)N1CCN(CCn2cccn2)CC1` | 6.522 | 13.75 |
| `CC(C)(C)c1nc(CN2CCCC2Cn2cccn2)no1` (stereo unspecified) | -1.215 | -11.69 |
| `Nc1nccc(C2CCCN(CC3CC3)C2)n1` (stereo unspecified) | 20.25 | 4.349 |
| `O=C(NCc1cc[nH]n1)N1CCN(c2ncccn2)CC1` | 16.48 | -10.26 |
| `O=C(NCC1(CO)CC1)c1ccccc1C(F)(F)F` | 6.643 | -5.78 |
| `CC1c2ncc(Cn3cccn3)n2CCN1S(C)(=O)=O.O=C(O)C(F)(F)F` (stereo unspecified) | - | 30.68 |
| `CN1CC(=O)N(c2cccc(F)c2)CC12CCN(Cc1cncn1C)C2` (stereo unspecified) | 12.06 | - |
| `O=S(=O)(NCCCn1cncn1)c1ccc2c(c1)CCC2` | 10.84 | -2.071 |
| `CC(CN1CCOCC1)NCc1nncn1C1CCCCC1` (stereo unspecified) | 16.81 | 9.617 |
| `CC(c1nc(C2CC2)no1)N1CCN(c2ccc(C#N)cn2)CC1` (stereo unspecified) | 14.08 | -3.848 |
| `CN(C)CCOc1ccc(CNC(=O)c2cccc3[nH]ncc23)cc1` | 3.846 | -3.791 |
| `O=C(O)C(F)(F)F.[H][C@]12CCN(c3ncc(F)cn3)[C@@]1([H])CC[C@H](COCc1cccnc1)O2` | - | -15.23 |
| `Fc1cnc(N2CCOC3(CCN(Cc4cccs4)CC3)C2)nc1.O=C(O)C(F)(F)F.O=C(O)C(F)(F)F` | - | 39.58 |
| `Cc1nc(C)c(CC(=O)N2C[C@@H](C(=O)O)[C@H](c3ccncc3)C2)s1` | 6.529 | 2.174 |
| `COCCC(=O)N1CCCC1c1nc(O)cc(C(C)C)n1` (stereo unspecified) | 7.717 | -10.31 |
| `O=C(NCCc1[nH]nc2c1CCCC2)C1CCCN(Cc2ccco2)C1` (stereo unspecified) | 12.85 | -34.95 |
| `O=C1CC(c2ccc(C(=O)O)cc2)c2ncn(-c3cccnc3)c2N1` (stereo unspecified) | 8.052 | 8.073 |
| `COc1ccc(Cl)cc1C(=O)NCCNc1cnccn1` | 18.89 | -0.601 |
| `CC[C@@H]1N(Cc2ccncc2)CCC[C@]12CCC(=O)N2CCOC.O=C(O)C(F)(F)F.O=C(O)C(F)(F)F` | - | -19.31 |
| `CCC[C@H]1CN(Cc2cc(C#N)n(C)c2C)C[C@@H]1N(C)C` | 5.367 | -3.944 |
| `Cn1cnc2c1CCN(c1ccnc(-c3ccccc3)n1)C2` | 28.12 | 42.96 |
| `Cc1c(C2CC(=O)Nc3c2cnn3C(C)(C)C)cnn1C` (stereo unspecified) | 16.82 | 11.91 |
| `Cc1ccc(CN2CC[C@H]3C[C@@H](c4nc(C5CC5)cs4)O[C@@H]3C2)o1` | 13.39 | - |
| `CC(C)n1ncc2c1NC(=O)CC21C(=O)Nc2c(Cl)cc(Cl)cc21` (stereo unspecified) | 15.35 | 0.08625 |
| `CN(Cc1ccco1)[C@@H]1CN(Cc2nccn2C)[C@@H]2CCCO[C@H]12` | 18.68 | - |
| `O=C(COC1CCCCC1)N1CCCC(n2ccnc2)C1` (stereo unspecified) | 12.57 | -12.85 |
| `Cc1ncccc1C(=O)Nc1cccc(C[S+](C)[O-])c1C` (stereo unspecified) | 14.74 | -2.072 |
| `Cc1nc(C(C)C)sc1C(=O)NS(=O)(=O)c1ccc(C#N)cc1` | 14.13 | -5.64 |
| `COc1ccc(F)c(F)c1C(=O)N1C[C@@H](CN(C)CCO)[C@@H](CO)C1` | 9.929 | -9.097 |
| `CC(C)NC(=O)c1nn(C)c(NC(=O)Cc2ccccc2)c1F` | 9.832 | 7.379 |
| `c1csc(-c2noc(CCCN3CCCC3Cn3cncn3)n2)c1` (stereo unspecified) | 19.94 | 6.842 |
| `COCc1noc(CN2C(=O)OC[C@@H]2C(C)C)n1` | 8.591 | -13.11 |
| `CC(C)Cc1nc(OCC(=O)O)c(C#N)c2c1CCCC2` | 6.034 | 10.14 |
| `[H][C@@]12CCN(Cc3ccoc3)[C@]1([H])CC[C@H](C(=O)NCC1CC1)O2` | - | 14.62 |
| `CN1CCOC(CNCC(=O)NCCCc2ccccc2)C1` (stereo unspecified) | -4.19 | -30.95 |
| `CCNC(=O)[C@@H]1C[C@H](N)CN1C1CCN(c2ccccc2OC)CC1` | 4.872 | 32.89 |
| `COCC(=O)N1CC(=O)c2sc(Nc3ccc(F)cc3F)nc2C1` | 12.86 | -5.756 |
| `Cc1cc(C(=O)N2CCC3(CC2)c2nc[nH]c2CCN3CC(C)C)no1` | 12.32 | 10.7 |
| `CC[C@@]1(O)CCN(CCCOc2ccc(C(N)=O)cc2)C[C@H]1O` | 23.72 | 6.914 |
| `CCCc1cc(C(=O)N(Cc2cccnc2)C[C@@H]2CCC(=O)N2)no1` | 21.48 | 6.646 |
| `O=S(=O)(c1cccs1)N1CCCC(c2nccs2)C1` (stereo unspecified) | 16.72 | -17.5 |
| `Cc1cc(N(Cc2ccccc2F)C2CC2)n2nc(C(F)(F)F)nc2n1` | 13.49 | 2.89 |
| `CN([C@@H]1CCC[C@@H](n2ccnc2)[C@@H]1O)S(=O)(=O)c1cn(C)cn1` | 12.38 | -30.66 |
| `Cc1cc(C(=O)Nc2ccc3c(ccn3CCN3CCOCC3)c2)on1` | 7.833 | 10.07 |
| `O[C@]1(c2ccccn2)CC[C@@H]2CN(Cc3cccc4ncccc34)C[C@@H]21` | 7.877 | - |
| `Cc1n[nH]c(C)c1C1CCCN1C(=O)NCC(=O)NC(C)(C)C` (stereo unspecified) | 10.34 | -1.595 |
| `CC(=O)N1CCCC(c2ccc(N3CCOCC3)cn2)C1` (stereo unspecified) | 4.531 | -6.144 |
| `N#Cc1cc(F)ccc1Cn1cncn1` | 14.84 | -4.664 |
| `NCC1(c2cccc(C(F)(F)F)c2)CCOCC1` | 12.38 | 8.563 |
| `CCCn1ncc(C(=O)N(C)Cc2cc(C3CC3)[nH]n2)c1C` | 12.31 | 19.82 |
| `COCCNc1cc(C2CCCNC2)ccn1.Cl` (stereo unspecified) | - | 2.728 |
| `CCC[C@H]1CN(S(=O)(=O)c2ccc(Cl)cc2)C[C@@H]1NC(C)=O` | 5.842 | -4.912 |
| `CCCc1n[nH]cc1C(=O)N1CCCC(c2nccn2CC2CC2)C1` (stereo unspecified) | 12.9 | -11.11 |
| `CCOCC(=O)NCCc1ccc(I)s1` | -8.564 | 18.55 |
| `Cc1nc2cc(F)ccc2cc1C(=O)N1CCN(CC(C)O)CC1` (stereo unspecified) | 23.63 | -27.01 |
| `Cc1cnn(CC2CCCN2Cc2coc(-c3ccc(F)cc3)n2)c1` (stereo unspecified) | 18.56 | -16.61 |
| `Cc1nn(CCC#N)c(C)c1[C@@H]1C=C[C@@H](NCc2ccc(F)cc2)C1` | 10.99 | 10.11 |
| `CC(C)[C@@H]1CN(CCCOc2ccc(F)cc2)C[C@H]1NS(C)(=O)=O` | 6.923 | -13.45 |
| `Cc1c(F)cc(C(=O)O)cc1S(=O)(=O)Nc1ccc(F)c(C#N)c1` | 5.698 | -2.544 |
| `COc1ccc2c3c1CN(S(C)(=O)=O)CC3=CC(C)(C)CO2` | 12.33 | 9.771 |
| `O=C(O)C(F)(F)F.[H][C@@]12COC[C@]1(CN(C)C)CN(C(=O)c1cc(C)oc1C)C2` | - | -3.41 |
| `Cn1cc(C(=O)OCC(N)=O)c(-c2ccc(F)cc2F)n1` | 7.219 | 10.88 |
| `Cc1nn(C)c(N(C)C)c1CNC1CCOc2c(Cl)cccc21` (stereo unspecified) | 6.557 | 9.332 |
| `Cc1c(C(=O)N2CCCC(n3cncn3)C2)cnn1C` (stereo unspecified) | 16.94 | -10.28 |
| `Cc1ccnc(NC(=O)C2CCN(CCCn3ccnc3)CC2)c1` | 6.97 | -12.57 |
| `[H][C@]12CCN(C(=O)c3ccoc3)[C@@]1([H])CC[C@H](COCc1ccccn1)O2` | - | -14.69 |
| `CN1CCN(C(=O)c2nc3c(s2)CCCN3C(=O)C2CC2)CC1` | 14.88 | - |
| `CCOc1nnc(CN(CC)CC(=O)NC(C)(C)C)s1` | 4.298 | 2.677 |
| `COc1c(CNCc2cnn(C)c2)c(C(C)C)nn1C` | 18.37 | -5.25 |
| `Cn1ccnc1CN1CCN(CC(=O)NCc2ccccc2F)CC1` | 19.44 | -7.067 |
| `Cn1nc2c(cc1=O)CN(Cc1nc(-c3ccco3)no1)CC2` | 5.491 | 3.245 |
| `Cc1nc(C)n(CC2CCCN2CCc2ccncc2)n1` (stereo unspecified) | 5.789 | 6.42 |

Repeated from the top, 6 entries:

structure,LdMetRS,Mtb heat-shock
O=C(COCc1ccccc1Cl)N1CCN(c2ncccn2)CC1,-4.032,-11.84
CCc1nnc(CN(C)C[C@@H]2CCCN3CCCC[C@H]23)o1,13.33,-
CSCC(CCO)NC(=O)c1cccc(C)c1Cl (stereo unspecified),14.73,-40.53
CN1CCN(C2CCN(Cc3noc(C(C)(C)C)n3)CC2)C1=O,2.29,-31.45
COCCCn1c(CN2CCCC(O)C2)cnc1S(=O)(=O)C1CCCC1 (stereo unspecified),13.39,-38.6
CN1CCN(CC(NCc2cccc(O)c2)c2ccccc2)CC1 (stereo unspecified),15.23,12.4